{"source": "patent US7709645B2", "about": "“Pyrrolo-pyridine kinase modulators” (SGX Pharmaceuticals, Inc., priority 2004, dated 2010)", "target": "T1, PDK1 kinase (Homo sapiens, UniProt O15530)", "T1 construct": "6x Histidine tag (TEV-cleavable) (cleaved yes); made in house; host or cells: Sf9 insect cells", "T1 sequence (O15530 1-556)": "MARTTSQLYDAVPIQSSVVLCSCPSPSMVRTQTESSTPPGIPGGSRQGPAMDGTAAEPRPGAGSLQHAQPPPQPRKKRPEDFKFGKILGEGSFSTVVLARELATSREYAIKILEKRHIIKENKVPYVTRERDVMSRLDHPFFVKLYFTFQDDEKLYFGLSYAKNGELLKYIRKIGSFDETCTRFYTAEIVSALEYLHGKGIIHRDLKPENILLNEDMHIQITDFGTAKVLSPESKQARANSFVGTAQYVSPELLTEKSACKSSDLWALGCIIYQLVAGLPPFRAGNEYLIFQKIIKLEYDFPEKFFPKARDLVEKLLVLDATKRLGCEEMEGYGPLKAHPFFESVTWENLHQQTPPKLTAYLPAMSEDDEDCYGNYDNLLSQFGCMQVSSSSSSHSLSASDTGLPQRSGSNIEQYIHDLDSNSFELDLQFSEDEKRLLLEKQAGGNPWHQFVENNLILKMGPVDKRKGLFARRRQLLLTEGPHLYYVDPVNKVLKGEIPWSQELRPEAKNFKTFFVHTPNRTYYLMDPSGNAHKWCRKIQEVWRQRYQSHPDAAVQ", "assay": "PDK1 Bioassay (luminescence-based enzyme assay, Kinase-Glo)", "type": "biochemical", "details": "5 μM ATP", "from_the_text": "In addition to the c-Abl PK/LDH coupled assay (above), homogeneous luminescence-based inhibitor screening assays were developed for c-Abl, MET, AurA, and PDK1 kinases (among others). Each of these assays made use of an ATP depletion assay (Kinase-Glo™, Promega Corporation, Madison, Wis.) to quantitate kinase activity. The Kinase-Glo™ format uses a thermostable luciferase to generate luminescent signal from ATP remaining in solution following the kinase reaction. The luminescent signal is inversely correlated with the amount of kinase activity. […]\nStandard Assay Setup for 384-well format (20 μl kinase reaction, 40 μl detection reaction): 10 mM MgCl2; 0.01 mM PDKtide; 1 μl test compound (in DMSO); 0.1 μg/ml PDK1 kinase; 5 μM ATP; 10 mM MgCl2; 100 mM HEPES+0.01% Brij buffer. […] Kinase reactions were incubated at 21° C. for 40 min, then 20 μl of Kinase-Glo™ reagent were added to each well to quench the kinase reaction and initiate the luminescence reaction. After a 20 min incubation at 21° C., the luminescence was detected in a plate-reading luminometer. […]", "note": "Some of these results come from one statement about several compounds together. At least one compound was matched to its structure with a doubt left.", "data": [{"compound": "c1cc(-c2c[nH]c3ncc(-c4ccc5[nH]ccc5c4)cc23)[nH]n1", "note": "[AE50]", "values": [{"measurement": "IC50", "result": "< 1000", "unit": "nM"}]}]}
